In patent US7897371B2, “Activation of mutated RAC-PK” (Novartis AG, priority 1995, dated 2011):
Like-named read-outs stand apart in the source and are kept apart here. For some of these results: At least one peptide structure holds a part that was inferred or is arguable (an end, a ring closure or a residue). For some of these results: At least one structure is not confirmed: it was looked up by name or label, or the drawing left a doubt. No end group written: not given here.

Sequences of proteins named here, by UniProt entry; tags and fusion partners are left off. Residues count along the entry.
UniProt P67999, 24-525: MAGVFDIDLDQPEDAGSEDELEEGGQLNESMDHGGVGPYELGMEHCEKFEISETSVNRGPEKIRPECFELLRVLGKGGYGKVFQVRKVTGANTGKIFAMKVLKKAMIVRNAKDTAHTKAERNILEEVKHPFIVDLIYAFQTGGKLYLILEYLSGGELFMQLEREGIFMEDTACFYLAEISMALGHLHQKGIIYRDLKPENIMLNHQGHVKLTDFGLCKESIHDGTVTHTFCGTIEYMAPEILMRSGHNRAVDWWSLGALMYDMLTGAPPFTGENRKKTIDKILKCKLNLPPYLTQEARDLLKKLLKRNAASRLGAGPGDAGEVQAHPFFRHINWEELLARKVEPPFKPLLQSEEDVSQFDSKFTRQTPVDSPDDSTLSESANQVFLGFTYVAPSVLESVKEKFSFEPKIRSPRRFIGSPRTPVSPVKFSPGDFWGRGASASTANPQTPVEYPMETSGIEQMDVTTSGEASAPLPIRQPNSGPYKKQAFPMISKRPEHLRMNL

Legend:
p70s6k = assay: Serum-induced p70s6k activation in Swiss 3T3 cells; assay type: cell-based; settings: Swiss 3T3, pretreatment before serum
RAC-PK = RAC-PK activity immunoprecipitated from Swiss 3T3 cells (MBP substrate); assay type: cell-based; settings: Swiss 3T3 fibroblasts, pretreatment before serum
MAPKAP kinase-1 [1] = assay: Substrate phosphorylation kinetics with MAPKAP kinase-1; assay type: biochemical, rabbit; settings: Table 7.2B
MAPKAP kinase-1 [2] = settings: cited from earlier work; for MAPKAP kinase-1 Vmax (U/mg): values marked *: data reported previously
p70 S6 kinase [3] = target: T1, p70 S6 kinase (Rattus norvegicus, UniProt P67999); settings: values marked *: data reported previously; cited from earlier work
T1 construct: from tissue; host or cells: rat liver

p70 S6 kinase [4] = target: T1, p70 S6 kinase; assay: Substrate phosphorylation kinetics with p70 S6 kinase; assay type: biochemical

In the case of CO[C@H]1C[C@@H]2CC[C@@H](C)[C@@](O)(O2)C(=O)C(=O)N2CCCC[C@H]2C(=O)O[C@H]([C@H](C)C[C@@H]2CC[C@@H](O)[C@H](OC)C2)CC(=O)[C@H](C)/C=C(\C)[C@@H](O)[C@@H](OC)C(=O)[C@H](C)C[C@H](C)/C=C/C=C/C=C/1C [rapamycin], the “Effect on p70s6k activation” value (p70s6k) is reported as “abolish”.
In the case of COC[C@H]1OC(=O)c2coc3c2[C@@]1(C)C1=C(C3=O)[C@@H]2CCC(=O)[C@@]2(C)C[C@H]1OC(C)=O [wortmannin], the “Effect on serum-induced RAC-PK activation” value (RAC-PK) is reported as “almost completely blocks” and the “Effect on p70s6k activation” value (p70s6k) is reported as “abolish”.
In the case of GRPRTSSFAEG, the “MAPKAP kinase-1 Vmax (U/mg)” value (MAPKAP kinase-1 [1]) is reported as 790 U/mg.
For KKKNRTLSVA, the “MAPKAP kinase-1 Vmax (U/mg)” value (MAPKAP kinase-1 [2]) is given as 1550* U/mg and the “p70 S6 kinase Vmax (U/mg)” value (p70 S6 kinase [3]) is given as 890* U/mg.
In the case of KKRNRTLSVA, the Km (MAPKAP kinase-1 [2]; read-out: Km for phosphorylation by MAPKAP-K1) is given as 0.7 µM.
In the case of KKRNRTLTV, the “MAPKAP kinase-1 Vmax (U/mg)” value (MAPKAP kinase-1 [2]) is listed as 270* U/mg and the “p70 S6 kinase Vmax (U/mg)” value (p70 S6 kinase [3]) is listed as 1470* U/mg.
In the case of RPRAASF [RPRAASF], the “MAPKAP kinase-1 Vmax (U/mg)” value (MAPKAP kinase-1 [1]) is reported as 1020 U/mg and the “Phosphorylation by p70 S6 kinase” value (p70 S6 kinase [4]) is reported as “virtually abolished”.
With RPRTSSF [RPRTSSF] the “MAPKAP kinase-1 Vmax (U/mg)” value (MAPKAP kinase-1 [1]) was 840 U/mg.
With RPRTSTF [RPRTSTF] the “MAPKAP kinase-1 Vmax (U/mg)” value (MAPKAP kinase-1 [1]) was >500 U/mg.
